Measurements reported in patent US20140079691A1.
No constants are given. Whether binding was seen depends on the method and setting. Some binding calls cover weakened binding; strength is not graded here.

Sequences of proteins named here, by UniProt entry; tags and fusion partners are left off. Residues count along the entry.
UniProt P03612, residues 2-130: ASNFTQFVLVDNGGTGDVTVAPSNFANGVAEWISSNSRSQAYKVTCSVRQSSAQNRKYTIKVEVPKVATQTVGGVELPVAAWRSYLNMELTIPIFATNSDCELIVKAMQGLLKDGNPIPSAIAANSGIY

Molecular target: MS2 bacteriophage coat protein (MS2 bacteriophage) (UniProt P03612)
Assay: SPR (Biacore)

| Binder | binding |
| --- | --- |
| APE556 (antibody, V domains shown) VH: EVQLLESGGGLVQPGGSLRLSCAASGFTFSSYAMSWVRQAPGKGLEWVSTISTGGGYTYFPDSVKGRFTISRDNSKNTLYLQMNSLRAEDTAVYYCARQGDFGDWYFDVWGAGTTVTVSS VL: DVVMTQSPLSLPVTLGQPASISCRSSQSLVHSNGNTYLHWYQQRPGQSPRLLIYKVSNRFSGVPDRFSGSGSGTDFTLKISRVEAEDVGVYFCSQSTHVPWTFGGGTKLEIK | binds |
| APE1027 (antibody, V domains shown) VH: EVQLVESGGGLVQPGGSLILSCVASGFTFSSYAMSWVRQAPGKGLEWVCTISTGGGYTYSPDSVKGRFTCSRDNSKNTLYLQMNSLRAEDTAVYYCARQGDFGDWYFDVWGAGTTVTVSS VL: DVVLTQSPLSLAVLLGQPASISCRSSESLVHTNGNTYLHWYQQRPGQSPRLLIYKVSNRFSGVPDRFSGSGSGTDFTLKISRVEAEDVGVYFCSQSTRVPWTFGGGTKLEIK | binds |
